For the assay, the system named is L1210 leukemia ip in BDF1 mice, survival T/C. Put plainly: NCI In Vivo Anticancer Drug Screen. Data for tumor model L1210 Leukemia (intraperitoneal) in B6D2F1 (BDF1) mice. Particulars: T/C endpoint: mean survival time, higher T/C = longer survival.
The mark [1] stands for this setting: dose: 200.0 mg/kg/injection, schedule: Q01DX001 (ip), vehicle: saline.
The mark [2] stands for this setting: dose: 400.0 mg/kg/injection, schedule: Q01DX001 (ip), vehicle: saline.
Setting [3] is: dose: 175.0 mg/kg/injection, schedule: Q01DX Z (ip), vehicle: methylcellulose (MC).
The mark [4] stands for this setting: dose: 300.0 mg/kg/injection, schedule: Q01DX009 (ip), vehicle: saline.
The mark [5] stands for this setting: dose: 300.0 mg/kg/injection, schedule: Q01DX001 (ip), vehicle: saline.
The mark [6] stands for this setting: dose: 200.0 mg/kg/injection, schedule: Q04DX003 (ip), vehicle: saline with Tween-80.
[7] abbreviates: dose: 400.0 mg/kg/injection, schedule: Q04DX003 (ip), vehicle: saline with Tween-80.

The list shows only some results of the screen, not a fair sample: it is rich in T/C values a quarter to a half above the control, in often repeated tests (any T/C) and in doses without a T/C. Other doses and runs of a compound stand elsewhere. T/C gives the treated animals as a percentage of the vehicle group. Some entries give survivors of the animals treated and no T/C: the source files T/C as zero there, which appears to mark a toxic dose or a test without result, not a measured value. Some survivor counts are full or nearly so, which does not show that the dose was tolerated: the source hardly ever lists a survival T/C far under the control, and the zero likely stands for such cases as well. Counts of survivors are from the toxicity check (mostly the fifth day) where no day follows; animals may have died later. Schedules are NCI's codes, taken here to give the interval after Q, in days (D) or hours (H), and the number of doses after X. Some schedules carry Z or #; the key to these is not given. Some molecules as drawn cover several salts, stereoisomers or complexes of the source; a dose is that of the sample tested. Signs of the kind (2×) count equal records among those shown. Some entries hold several experiments; their values stand side by side, smallest first. Where survival is the endpoint, the PubChem record calls one and a half times the control and up active, and a quarter to a half above the control has no call in these data; cut-offs in other NCI protocols can differ. Some T/C values are followed by the survivors on the day toxicity was checked, most often the fifth; without a count, all were alive then.

On to `C[N+]12CC3C(O)CC1CCC32` (centres undefined), for which the survivor count (dose: 100.0 mg/kg/injection, schedule: Q01DX001 (ip), vehicle: saline) was 1 of 6; the survivor count under setting [1] is 0 of 6 and 2 of 6; the survivor count under setting [2] was 0 of 6 (2×).

With `CC1(O)CCCCCCC1`, the survivor count under setting [2] is on record as 2 of 4.

Turning to `COc1ccc(C)cc1NC(=O)SCCSC(=O)Nc1cc(C)ccc1OC`, the survivor count (dose: 400.0 mg/kg/injection, schedule: Q01DX009 (ip), vehicle: saline with Tween-80) is 4 of 6.

Consider `O=C(NO)Nc1nc(Cl)c(Cl)nc1Cl`, for which the survivor count (dose: 100.0 mg/kg/injection, schedule: Q01DX009 (ip), vehicle: water) is on record as 3 of 6; the survivor count (dose: 200.0 mg/kg/injection, schedule: Q01DX009 (ip), vehicle: water) is on record as 3 of 6; the survivor count (dose: 400.0 mg/kg/injection, schedule: Q01DX009 (ip), vehicle: water) was 0 of 6.

As to `C[C@H](CCC(=O)O)[C@H]1CC[C@H]2[C@@H]3[C@H](O)C[C@@H]4C[C@H](O)CC[C@]4(C)[C@H]3C[C@H](O)[C@]12C` (tested in a mixture with another compound), the T/C (dose: 80.0 mg/kg/injection, schedule: Q01DX Z (ip), vehicle: methylcellulose (MC)) was 126 % of control; the T/C (dose: 120.0 mg/kg/injection, schedule: Q01DX009 (ip), vehicle: saline) is 125 % of control; the T/C (dose: 120.0 mg/kg/injection, schedule: Q01DX Z (ip), vehicle: methylcellulose (MC)) is 126 % of control; the T/C under setting [3] is 129 and 132 % of control; the T/C (dose: 180.0 mg/kg/injection, schedule: Q01DX009 (ip), vehicle: saline) is 137 % of control [4 of 6 alive]; the T/C (dose: 300.0 mg/kg/injection, schedule: Q04DX003 (ip), vehicle: other) is 145 % of control. In addition, the survivor count reads like this: under setting [3], 2 of 6; (dose: 263.0 mg/kg/injection, schedule: Q01DX Z (ip), vehicle: methylcellulose (MC)) 1 of 6; (dose: 270.0 mg/kg/injection, schedule: Q01DX009 (ip), vehicle: other) 1 of 6; (dose: 270.0 mg/kg/injection, schedule: Q01DX009 (ip), vehicle: saline) 1 of 6; (dose: 270.0 mg/kg/injection, schedule: Q01DX Z (ip), vehicle: methylcellulose (MC)) 6 of 6; under setting [4], 2 of 6. In addition, where the note is “dose: 400.0 mg/kg/injection, schedule: Q01DX001 (ip), vehicle: alcohol”, the survivor count was 3 of 6.

`Cc1ccc(NC(=O)c2ccccc2)cc1`: where the note is “dose: 400.0 mg/kg/injection, schedule: Q04DX002 (ip), vehicle: Klucel (hydroxypropylcellulose) (HPC)”, the survivor count was 1 of 3.

In the case of `CC(=O)NC1C(NC(=O)C(CC(=O)O)NC(=O)OCc2ccccc2)OC(COC(C)=O)C(OC(C)=O)C1OC(C)=O` (centres undefined), the survivor count (dose: 200.0 mg/kg/injection, schedule: Q04DX002 (ip), vehicle: Klucel (hydroxypropylcellulose) (HPC)) was 3 of 3.

As for `Cc1cc(N(C)c2ccccc2)nc(N)n1`, the survivor count is, setting by setting: (dose: 50.0 mg/kg/injection, schedule: Q01DX Z (ip), vehicle: methylcellulose (MC)) 0 of 6; (dose: 100.0 mg/kg/injection, schedule: Q01DX Z (ip), vehicle: methylcellulose (MC)) 0 of 6; (dose: 200.0 mg/kg/injection, schedule: Q01DX Z (ip), vehicle: methylcellulose (MC)) 0 of 6.

For `COc1cc2c(cc1OC)C1(CCCl)C3CC4C(=CCOC5CC(=O)N2C1C54)CN3C(=O)Cc1ccccc1` (centres undefined), the survivor count reads like this: (dose: 150.0 mg/kg/injection, schedule: Q01DX001 (ip), vehicle: saline) 2 of 6; under setting [5], 0 of 6.

Turning to `CSc1nn2c(SC)nnc2s1`, under “dose: 400.0 mg/kg/injection, schedule: Q01DX001 (ip), vehicle: carboxymethylcellulose (CMC)”, the survivor count is given as 0 of 4.

Take `CCCCCSc1nccc(N)n1`: the survivor count (dose: 400.0 mg/kg/injection, schedule: Q01DX001 (ip), vehicle: saline with Tween-80) is listed as 0 of 6.

For `ClC(Cl)(Cl)c1ccn(-c2ccccc2)n1`, the survivor count (dose: 200.0 mg/kg/injection, schedule: Q01DX001 (ip), vehicle: Klucel (hydroxypropylcellulose) (HPC)) is on record as 3 of 6 and the survivor count (dose: 400.0 mg/kg/injection, schedule: Q01DX001 (ip), vehicle: Klucel (hydroxypropylcellulose) (HPC)) is given as 3 of 6.

In the case of `COc1cccc(/C=C/[N+](=O)[O-])c1OCc1ccccc1`, the survivor count by setting is: (dose: 100.0 mg/kg/injection, schedule: Q04DX003 (ip), vehicle: acetone) 4 of 6; (dose: 200.0 mg/kg/injection, schedule: Q04DX003 (ip), vehicle: acetone) 2 of 6; (dose: 400.0 mg/kg/injection, schedule: Q04DX003 (ip), vehicle: acetone) 1 of 6.

On to `O=P(O)(O)C(Cl)(Cl)Cl`, for which the survivor count (dose: 400.0 mg/kg/injection, schedule: Q04DX002 (ip), vehicle: saline) is reported as 3 of 3.

`O=C(OCC1OC(n2cnc3c(=S)nc[nH]c32)C(OC(=O)c2ccc([N+](=O)[O-])cc2)C1OC(=O)c1ccc([N+](=O)[O-])cc1)c1ccc([N+](=O)[O-])cc1` (centres undefined): the T/C reads like this: (dose: 66.0 mg/kg/injection, schedule: Q01DX009 (ip), vehicle: saline with Tween-80) 138 % of control; (dose: 132.0 mg/kg/injection, schedule: Q01DX009 (ip), vehicle: saline) 148 % of control; under setting [1], 129 % of control; (dose: 200.0 mg/kg/injection, schedule: Q01DX Z (ip), vehicle: other) 125 % of control; under setting [5], 128 % of control; under setting [4], 139 % of control. The T/C (dose: 400.0 mg/kg/injection, schedule: Q01DX Z (ip), vehicle: other) was 130 % of control. For the same molecule, the survivor count under setting [2] was 3 of 6.

On to `CC(C)NC(=O)C1CC2c3cccc4[nH]c(Br)c(c34)CC2N(C)C1` (centres undefined), for which the survivor count is reported as 0 of 6 (dose: 100.0 mg/kg/injection, schedule: Q04DX003 (ip), vehicle: saline with Tween-80); 0 of 6 under setting [6]; 0 of 6 under setting [7].

With `CCOC(=O)C1CNc2ccccc2N1` (centres undefined), the survivor count (dose: 100.0 mg/kg/injection, schedule: Q01DX009 (ip), vehicle: saline with Tween-80) is 2 of 6; the survivor count under setting [6] is given as 2 of 6; the survivor count under setting [7] is 0 of 6.

As to `COc1ccc2c(c1)CC/C(=C\c1ccc(OCCN3CCCC3)cc1)C2=O`, the survivor count is, setting by setting: under setting [6], 0 of 6; under setting [7], 0 of 6.

Take `N#CC(OS(=O)(=O)c1ccccc1)c1ccccc1` (centres undefined): the survivor count (dose: 400.0 mg/kg/injection, schedule: Q01DX001 (ip), vehicle: other) is 1 of 4.

With `CCCCOC(=O)/C=C\C(=O)NC(N)=O`, the survivor count is on record as 3 of 6 (dose: 76.0 mg/kg/injection, schedule: Q01DX Z (ip), vehicle: methylcellulose (MC)) and 1 of 6 (dose: 114.0 mg/kg/injection, schedule: Q01DX Z (ip), vehicle: methylcellulose (MC)).

Regarding `[O-][n+]1onc2ccc(Cl)cc21`, the survivor count is, setting by setting: (dose: 150.0 mg/kg/injection, schedule: Q01DX009 (ip), vehicle: Klucel (hydroxypropylcellulose) (HPC)) 0 of 6; (dose: 225.0 mg/kg/injection, schedule: Q01DX009 (ip), vehicle: Klucel (hydroxypropylcellulose) (HPC)) 0 of 6; (dose: 335.0 mg/kg/injection, schedule: Q01DX009 (ip), vehicle: Klucel (hydroxypropylcellulose) (HPC)) 0 of 6.

Take `CN(C)CCCN1c2ccccc2CCc2ccc(Cl)cc21`: the survivor count is recorded as 1 of 6 (dose: 100.0 mg/kg/injection, schedule: Q01DX009 (ip), vehicle: saline); 0 of 4 (dose: 100.0 mg/kg/injection, schedule: Q04DX003 (ip), vehicle: saline); 0 of 6 (dose: 200.0 mg/kg/injection, schedule: Q01DX009 (ip), vehicle: saline); 0 of 4 (dose: 200.0 mg/kg/injection, schedule: Q04DX003 (ip), vehicle: saline); 0 of 6 (dose: 400.0 mg/kg/injection, schedule: Q01DX009 (ip), vehicle: saline); 0 of 4 (dose: 400.0 mg/kg/injection, schedule: Q04DX003 (ip), vehicle: saline).
